Results are given in words; binding and its absence hold for the method and conditions named. Some results given as binding are weak or reduced against the parent protein; the word gives no strength.
Legend:
[1] = biological target: metabotropic glutamate receptor 2 (UniProt Q14416); assay: AlphaScreen or HTRF; HTRF (FRET-based) between APP and mGluR2 or mGluR3 at the surface of transfected cells
[2] = biological target: metabotropic glutamate receptor 3 (UniProt Q14832); assay: as above

The chains behind the UniProt entries cited, without tags or fusion partners. Residues count along the entry.
UniProt Q14416, residues 19-872: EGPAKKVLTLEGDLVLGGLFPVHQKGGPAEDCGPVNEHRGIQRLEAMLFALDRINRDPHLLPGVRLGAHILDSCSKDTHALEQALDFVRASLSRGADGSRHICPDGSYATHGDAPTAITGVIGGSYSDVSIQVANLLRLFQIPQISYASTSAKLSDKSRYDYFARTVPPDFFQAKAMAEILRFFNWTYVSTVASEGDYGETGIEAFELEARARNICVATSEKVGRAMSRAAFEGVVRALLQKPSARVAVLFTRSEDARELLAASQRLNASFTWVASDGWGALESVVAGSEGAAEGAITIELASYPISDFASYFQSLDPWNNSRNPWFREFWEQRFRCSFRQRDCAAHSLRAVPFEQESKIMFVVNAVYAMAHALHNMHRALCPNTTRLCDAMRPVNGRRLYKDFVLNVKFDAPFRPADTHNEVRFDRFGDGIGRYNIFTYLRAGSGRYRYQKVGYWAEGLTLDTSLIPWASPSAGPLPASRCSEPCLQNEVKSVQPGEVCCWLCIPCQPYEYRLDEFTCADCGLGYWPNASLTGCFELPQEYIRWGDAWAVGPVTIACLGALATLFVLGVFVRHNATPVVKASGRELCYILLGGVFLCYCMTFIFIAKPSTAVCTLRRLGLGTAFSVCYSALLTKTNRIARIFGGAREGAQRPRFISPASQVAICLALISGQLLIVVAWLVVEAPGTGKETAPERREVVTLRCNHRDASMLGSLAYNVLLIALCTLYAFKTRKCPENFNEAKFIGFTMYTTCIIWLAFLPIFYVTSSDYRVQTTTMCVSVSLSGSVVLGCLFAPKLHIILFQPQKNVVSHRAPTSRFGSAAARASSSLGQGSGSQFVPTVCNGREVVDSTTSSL
UniProt Q14832, residues 23-879: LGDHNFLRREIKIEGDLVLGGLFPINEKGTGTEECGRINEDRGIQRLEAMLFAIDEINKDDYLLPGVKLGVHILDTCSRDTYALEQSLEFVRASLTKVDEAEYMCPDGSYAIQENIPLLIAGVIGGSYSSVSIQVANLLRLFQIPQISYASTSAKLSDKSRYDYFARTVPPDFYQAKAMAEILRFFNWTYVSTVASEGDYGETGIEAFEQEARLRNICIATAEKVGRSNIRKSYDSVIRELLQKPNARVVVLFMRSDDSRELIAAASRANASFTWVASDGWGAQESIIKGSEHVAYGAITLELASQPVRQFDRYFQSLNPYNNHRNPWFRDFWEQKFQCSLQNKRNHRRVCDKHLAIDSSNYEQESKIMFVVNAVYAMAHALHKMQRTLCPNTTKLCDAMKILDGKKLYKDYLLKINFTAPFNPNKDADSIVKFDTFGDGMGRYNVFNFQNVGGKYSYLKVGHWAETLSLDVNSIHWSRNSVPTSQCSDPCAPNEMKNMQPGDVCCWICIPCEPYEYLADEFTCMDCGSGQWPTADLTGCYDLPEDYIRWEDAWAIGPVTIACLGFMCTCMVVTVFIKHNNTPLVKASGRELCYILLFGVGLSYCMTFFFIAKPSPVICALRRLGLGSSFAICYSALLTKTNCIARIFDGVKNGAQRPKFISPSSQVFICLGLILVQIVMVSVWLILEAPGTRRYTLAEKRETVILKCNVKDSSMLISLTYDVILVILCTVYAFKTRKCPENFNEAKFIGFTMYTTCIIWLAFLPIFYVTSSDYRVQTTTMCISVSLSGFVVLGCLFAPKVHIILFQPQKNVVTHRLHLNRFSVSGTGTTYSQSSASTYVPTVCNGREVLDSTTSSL
UniProt P05067, residues 18-770: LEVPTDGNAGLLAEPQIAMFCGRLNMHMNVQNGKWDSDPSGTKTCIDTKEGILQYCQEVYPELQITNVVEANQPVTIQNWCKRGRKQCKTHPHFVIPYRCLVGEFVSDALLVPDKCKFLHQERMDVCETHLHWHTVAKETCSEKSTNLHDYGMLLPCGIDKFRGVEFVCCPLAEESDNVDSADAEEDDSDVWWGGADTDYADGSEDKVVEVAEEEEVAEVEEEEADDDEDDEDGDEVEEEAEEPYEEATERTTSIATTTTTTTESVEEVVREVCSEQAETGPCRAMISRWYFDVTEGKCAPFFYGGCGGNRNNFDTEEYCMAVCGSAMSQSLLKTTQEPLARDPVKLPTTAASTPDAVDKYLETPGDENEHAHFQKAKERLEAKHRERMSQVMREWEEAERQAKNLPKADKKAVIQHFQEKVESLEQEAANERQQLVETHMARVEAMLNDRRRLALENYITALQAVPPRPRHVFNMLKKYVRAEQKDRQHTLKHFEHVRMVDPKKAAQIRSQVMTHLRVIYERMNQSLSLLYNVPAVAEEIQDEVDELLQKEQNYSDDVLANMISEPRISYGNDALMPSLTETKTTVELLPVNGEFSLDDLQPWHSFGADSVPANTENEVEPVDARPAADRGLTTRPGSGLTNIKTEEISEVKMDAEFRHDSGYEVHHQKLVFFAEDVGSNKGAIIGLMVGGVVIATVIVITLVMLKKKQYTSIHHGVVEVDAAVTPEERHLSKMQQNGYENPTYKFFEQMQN

- binding [1]: no binding
- binding [2]: binds
Substance: APP (from UniProt P05067 18-770)
